# Test results taken from the supplement of paper PMC8728848.
# Some of the results follow.
# Columns and labels:
# Assay in all cases: glycan array binding signal (z-score within array); higher = stronger binding
# Conditions in all cases: glycan notation: IUPAC condensed, linker removed
# [1] = target: GlcNAc(b1-2)Gal(b1-3)GalNAc
# Method in brief: (§1)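 Columns mapping to the same glycan were averaged after glycan names were converted to IUPAC-condensed notation. The data come from 3228 arrays in the Consortium for Functional Glycomics database, limited to those with an available protein sequence. Binding is reported as a within-array Z-score averaged across arrays of one protein sequence and across linkers.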
# [2] = target: GlcNAc(b1-2)Man(a1-3)[GlcNAc(b1-2)Man(a1-6)]Man(b1-4)GlcNAc(b1-4)GlcNAc
# Method in brief: as §1
# [3] = target: GlcNAc(b1-2)Man(a1-3)[GlcNAc(b1-2)Man(a1-6)]Man(b1-4)GlcNAc(b1-4)[Fuc(a1-6)]GlcNAc
# Method in brief: as §1
# [4] = target: GlcNAc(b1-2)Man(a1-3)[GlcNAc(b1-4)][GlcNAc(b1-2)Man(a1-6)]Man(b1-4)GlcNAc(b1-4)GlcNAc
# Method in brief: as §1
# [5] = target: GlcNAc(b1-2)Man(a1-3)[GlcNAc(b1-4)][GlcNAc(b1-2)Man(a1-6)]Man(b1-4)GlcNAc(b1-4)[Fuc(a1-6)]GlcNAc
# Method in brief: as §1
# [6] = target: GlcNAc(b1-2)[GlcNAc(b1-4)]Man(a1-3)[GlcNAc(b1-2)Man(a1-6)]Man(b1-4)GlcNAc(b1-4)GlcNAc
# Method in brief: as §1
# [7] = target: GlcNAc(b1-2)[GlcNAc(b1-4)]Man(a1-3)[GlcNAc(b1-4)][GlcNAc(b1-2)Man(a1-6)]Man(b1-4)GlcNAc(b1-4)GlcNAc
# Method in brief: as §1
# [8] = target: GlcNAc(b1-2)[GlcNAc(b1-4)]Man(a1-3)[GlcNAc(b1-4)][GlcNAc(b1-2)[GlcNAc(b1-6)]Man(a1-6)]Man(b1-4)GlcNAc(b1-4)GlcNAc
# Method in brief: as §1
# [9] = target: GlcNAc(b1-2)[GlcNAc(b1-4)]Man(a1-3)[GlcNAc(b1-4)][GlcNAc(b1-2)[GlcNAc(b1-6)]Man(a1-6)]Man(b1-4)GlcNAc(b1-4)[Fuc(a1-6)]GlcNAc
# Method in brief: as §1
# [10] = target: GlcNAc(b1-2)[GlcNAc(b1-6)]Man(a1-6)[GlcNAc(b1-2)Man(a1-3)]Man(b1-4)GlcNAc(b1-4)GlcNAc
# Method in brief: as §1
# [11] = target: GlcNAc(b1-2)[GlcNAc(b1-6)]Man(a1-6)[GlcNAc(b1-2)Man(a1-3)]Man(b1-4)GlcNAc(b1-4)[Fuc(a1-6)]GlcNAc
# Method in brief: as §1
# [12] = target: GlcNAc(b1-2)[GlcNAc(b1-6)]Man(a1-6)[GlcNAc(b1-4)][GlcNAc(b1-2)Man(a1-3)]Man(b1-4)GlcNAc(b1-4)GlcNAc
# Method in brief: as §1
# GlcNAc(b1-3)Fuc = target: GlcNAc(b1-3)Fuc
# Method in brief: as §1
# GlcNAc(b1-3)Gal = target: GlcNAc(b1-3)Gal
# Method in brief: as §1
# [13] = target: GlcNAc(b1-3)Gal(b1-3)GalNAc
# Method in brief: as §1
# GlcNAc(b1-3)Gal(b1-4)Glc = target: GlcNAc(b1-3)Gal(b1-4)Glc
# Method in brief: as §1
# [14] = target: GlcNAc(b1-3)Gal(b1-4)GlcNAc
# Method in brief: as §1
# [15] = target: GlcNAc(b1-3)Gal(b1-4)GlcNAc(b1-2)Man(a1-3)[GlcNAc(b1-3)Gal(b1-4)GlcNAc(b1-2)Man(a1-6)]Man(b1-4)GlcNAc(b1-4)GlcNAc
# Method in brief: as §1
# [16] = target: GlcNAc(b1-3)Gal(b1-4)GlcNAc(b1-2)Man(a1-3)[GlcNAc(b1-3)Gal(b1-4)GlcNAc(b1-2)Man(a1-6)]Man(b1-4)GlcNAc(b1-4)[Fuc(a1-6)]GlcNAc
# Method in brief: as §1
# [17] = target: GlcNAc(b1-3)Gal(b1-4)GlcNAc(b1-2)[GlcNAc(b1-3)Gal(b1-4)GlcNAc(b1-6)]Man(a1-6)[GlcNAc(b1-3)Gal(b1-4)GlcNAc(b1-2)Man(a1-3)]Man(b1-4)GlcNAc(b1-4)GlcNAc
# Method in brief: as §1
# [18] = target: GlcNAc(b1-3)Gal(b1-4)GlcNAc(b1-3)Gal(b1-4)GlcNAc
# Method in brief: as §1
# [19] = target: GlcNAc(b1-3)Gal(b1-4)GlcNAc(b1-3)Gal(b1-4)GlcNAc(b1-2)Man(a1-3)[GlcNAc(b1-3)Gal(b1-4)GlcNAc(b1-3)Gal(b1-4)GlcNAc(b1-2)Man(a1-6)]Man(b1-4)GlcNAc(b1-4)GlcNAc
# Method in brief: as §1
# [20] = target: GlcNAc(b1-3)Gal(b1-4)GlcNAc(b1-3)Gal(b1-4)GlcNAc(b1-2)Man(a1-3)[GlcNAc(b1-3)Gal(b1-4)GlcNAc(b1-3)Gal(b1-4)GlcNAc(b1-2)Man(a1-6)]Man(b1-4)GlcNAc(b1-4)[Fuc(a1-6)]GlcNAc
# Method in brief: as §1
# [21] = target: GlcNAc(b1-3)Gal(b1-4)GlcNAc(b1-3)Gal(b1-4)GlcNAc(b1-2)[GlcNAc(b1-3)Gal(b1-4)GlcNAc(b1-3)Gal(b1-4)GlcNAc(b1-6)]Man(a1-6)[GlcNAc(b1-3)Gal(b1-4)GlcNAc(b1-3)Gal(b1-4)GlcNAc(b1-2)Man(a1-3)]Man(b1-4)GlcNAc(b1-4)[Fuc(a1-6)]GlcNAc
# Method in brief: as §1
# [22] = target: GlcNAc(b1-3)Gal(b1-4)GlcNAc(b1-3)Gal(b1-4)GlcNAc(b1-3)Gal(b1-4)GlcNAc(b1-2)Man(a1-3)[GlcNAc(b1-3)Gal(b1-4)GlcNAc(b1-3)Gal(b1-4)GlcNAc(b1-3)Gal(b1-4)GlcNAc(b1-2)Man(a1-6)]Man(b1-4)GlcNAc(b1-4)GlcNAc
# Method in brief: as §1
# [23] = target: GlcNAc(b1-3)Gal(b1-4)GlcNAc(b1-3)Gal(b1-4)GlcNAc(b1-3)Gal(b1-4)GlcNAc(b1-2)Man(a1-3)[GlcNAc(b1-3)Gal(b1-4)GlcNAc(b1-3)Gal(b1-4)GlcNAc(b1-3)Gal(b1-4)GlcNAc(b1-2)Man(a1-6)]Man(b1-4)GlcNAc(b1-4)[Fuc(a1-6)]GlcNAc
# Method in brief: as §1
# [24] = target: GlcNAc(b1-3)Gal(b1-4)GlcNAc(b1-3)Gal(b1-4)GlcNAc(b1-3)Gal(b1-4)GlcNAc(b1-2)[GlcNAc(b1-3)Gal(b1-4)GlcNAc(b1-3)Gal(b1-4)GlcNAc(b1-3)Gal(b1-4)GlcNAc(b1-6)]Man(a1-6)[GlcNAc(b1-3)Gal(b1-4)GlcNAc(b1-3)Gal(b1-4)GlcNAc(b1-3)Gal(b1-4)GlcNAc(b1-2)Man(a1-3)]Man(b1-4)GlcNAc(b1-4)[Fuc(a1-6)]GlcNAc
# Method in brief: as §1
# [25] = target: GlcNAc(b1-3)Gal(b1-4)GlcNAc(b1-3)Gal(b1-4)GlcNAc(b1-3)Gal(b1-4)GlcNAc(b1-3)Gal(b1-4)GlcNAc(b1-2)Man(a1-3)[GlcNAc(b1-3)Gal(b1-4)GlcNAc(b1-3)Gal(b1-4)GlcNAc(b1-3)Gal(b1-4)GlcNAc(b1-3)Gal(b1-4)GlcNAc(b1-2)Man(a1-6)]Man(b1-4)GlcNAc(b1-4)GlcNAc
# Method in brief: as §1
# [26] = target: GlcNAc(b1-3)Gal(b1-4)GlcNAc(b1-3)Gal(b1-4)GlcNAc(b1-3)Gal(b1-4)GlcNAc(b1-3)Gal(b1-4)GlcNAc(b1-2)Man(a1-3)[GlcNAc(b1-3)Gal(b1-4)GlcNAc(b1-3)Gal(b1-4)GlcNAc(b1-3)Gal(b1-4)GlcNAc(b1-3)Gal(b1-4)GlcNAc(b1-2)Man(a1-6)]Man(b1-4)GlcNAc(b1-4)[Fuc(a1-6)]GlcNAc
# Method in brief: as §1
# [27] = target: GlcNAc(b1-3)Gal(b1-4)GlcNAc(b1-3)Gal(b1-4)GlcNAc(b1-3)Gal(b1-4)GlcNAc(b1-3)Gal(b1-4)GlcNAc(b1-2)[GlcNAc(b1-3)Gal(b1-4)GlcNAc(b1-3)Gal(b1-4)GlcNAc(b1-3)Gal(b1-4)GlcNAc(b1-3)Gal(b1-4)GlcNAc(b1-6)]Man(a1-6)[GlcNAc(b1-3)Gal(b1-4)GlcNAc(b1-3)Gal(b1-4)GlcNAc(b1-3)Gal(b1-4)GlcNAc(b1-3)Gal(b1-4)GlcNAc(b1-2)Man(a1-3)]Man(b1-4)GlcNAc(b1-4)[Fuc(a1-6)]GlcNAc
# Method in brief: as §1
binder,measurement,setting,value
TAL6-6LysM (Trichoderma atroviride) (protein) AASKLGVPQPAQRDQVNCQLYAVQPNDNCIDISSKNNITYAQLLSWNPSLSSTCSNLASLNSSSICVSNPKGTFSISSNTVGATDIATTTAPVPSPTLDQTTSRCAKYYQVSDGDDCSHLTAQFAITLKDFIFLNSEVWQNCTNLELGYYYCVEPVGYISTYPGYLPTATTKPFNQTSATSLPYDGDPWARFSSNSSVIPIANGTRVDCYSYVYVKNLTENLFADCWNMASMYEITREELVLWNPSLGNDGSSGSNLSGAEASQVASSIAIPTTAPSSITTNLYTYPCTVAANISYCVALVSSTGALPTNTAPPGPHASGEISNCTAWFAPEAYDTCKSILDIFEMSFANFYKMNPSVGPDCSGLAVGTNYCVSTYPNGEDPNDDWDGDDSIPSISPTGIITPTPTQSGMVSNCNKFYDVHSNDGCSAIASSQHVDLSSLYKWNPAIKTDCSGLQASVYVCIGILTTSMSTTSKLPTTTSKPSTTSKPPTGITTPTPTQSGMVKNCNKFYDVHSGDGCSAIASSQKVNLSSFYLWNPAVKTDCSGLQASVFVCIGTLTTSMSTTTSKLPTTTSKPSTTSKPPTGIITPTPTQNGMVKNCNKFYDVHSGDGCSAIASSQKVNLSSFYLWNPAVKTDCSGLQASVFVCVGTATTTTAAGITTPTPTQSGMVSGCNKFYDVHAGDGCSAIASSQKIALSSLYKWNPAVKTDCSGLQASVYICIGVGNAAAARVTGAAASFLEQKLISEEDLNSAVDHHHHHH,glycan array binding signal (z-score),[1],-0.296
same,glycan array binding signal (z-score),[2],0.42
same,glycan array binding signal (z-score),[3],0.128
same,glycan array binding signal (z-score),[4],-1.17
same,glycan array binding signal (z-score),[5],-0.838
same,glycan array binding signal (z-score),[6],-0.559
same,glycan array binding signal (z-score),[7],1.15
same,glycan array binding signal (z-score),[8],0.223
same,glycan array binding signal (z-score),[9],0.451
same,glycan array binding signal (z-score),[10],-1.16
same,glycan array binding signal (z-score),[11],1.14
same,glycan array binding signal (z-score),[12],-0.275
same,glycan array binding signal (z-score),GlcNAc(b1-3)Fuc,-0.654
same,glycan array binding signal (z-score),GlcNAc(b1-3)Gal,-0.362
same,glycan array binding signal (z-score),[13],0.061
same,glycan array binding signal (z-score),GlcNAc(b1-3)Gal(b1-4)Glc,0.268
same,glycan array binding signal (z-score),[14],0.021
same,glycan array binding signal (z-score),[15],-1.2
same,glycan array binding signal (z-score),[16],0.823
same,glycan array binding signal (z-score),[17],1.76
same,glycan array binding signal (z-score),[18],0.291
same,glycan array binding signal (z-score),[19],0.252
same,glycan array binding signal (z-score),[20],0.195
same,glycan array binding signal (z-score),[21],-0.539
same,glycan array binding signal (z-score),[22],0.512
same,glycan array binding signal (z-score),[23],-0.35
same,glycan array binding signal (z-score),[24],-0.373
same,glycan array binding signal (z-score),[25],-0.734
same,glycan array binding signal (z-score),[26],1.32
same,glycan array binding signal (z-score),[27],2.31
